Measurements from patent CN113234157A.
Where a chain is given by its changes, count along the chain named. No constants are given. Whether binding was seen depends on the method and setting. Some entries that bind do so weakly or less than the wild type.

B1: 人源化抗人IL-33单克隆抗体D02-3P1hz31 (antibody, V domains shown)
VH: EVQLVESGGGLVQPGGSLRLSCAASGFTFSSYYMSWVRQAPGKGLELVSAISSSGGSTYYPDTVKGRFTISRDNSKNTLYLQMGSLRAEDMAVYYCARHSYGNWYFDVWGQGTTVTVSS
VL: EIVLTQSPATLSLSPGERATLSCRASESVDNYGISFMNWFQQKPGQAPRLLIYAASNQGSGIPARFSGSGSGTDFTLTISSLEPEDTAVYFCQQSKEVPWTFGQGTKVEIK
B2: 人源化抗人IL-33单克隆抗体E01-14O9hz10 (antibody, V domains shown)
VH: EVQLVESGGGLVQPGGSLRLSCATSGFTFTDYYMNWVRQAPGKGLEWVGFIRNKVNGYTTEYSASVKGRFTISRDNSKSILYLQMNSLRAEDTAVYYCARPYYGNYGWFPYWGQGTLVTVSS
VL: B1 VL with F40Y, T87F, F91Y, W100Y, Q104G
B3: 人源化抗人IL-33单克隆抗体H02-8F11hz01 (antibody, V domains shown)
VH: EVQLVQSGAEVKKPGASVKVSCKASGYTFTNYWIQWVRQAPGQGLEWMGEIFPGTGTSYYSEKFKGRVTMTTDTSTSTAYMELRSLRSDDTAVYYCARKHRGYGYGGAWIAYWGQGTLVTVSS
VL: DIQLTQSPSSVSASVGDRVTITCSATSSVSSMHWHQQKPGKAPKLLIYRTSNLASGVPSRFSGSGSGTDYTLTISSLQPEDFATYYCHQWSSYPTFGGGTKVEIK

biological target: T1, 人IL33蛋白 (human) (UniProt O95760); assay: affinity for IL-33; method not detailed
T1 sequence (looked up): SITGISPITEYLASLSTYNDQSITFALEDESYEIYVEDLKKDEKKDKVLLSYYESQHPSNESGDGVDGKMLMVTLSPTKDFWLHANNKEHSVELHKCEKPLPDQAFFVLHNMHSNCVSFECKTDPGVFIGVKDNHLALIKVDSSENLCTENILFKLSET

Row | Binder | binding
1 | B1 | binds
2 | B2 | binds
3 | B3 | binds
